Test results as given in US20220298038A1, “A METHOD FOR DISRUPTING BIOFILMS IN WASTEWATER SYSTEMS” (GRENOF PTY LTD, priority 2019, published 2022).

Test: Persistence of organic peroxy compound along rising main

## CC(=O)OO [Peracetic Acid, peroxyacetic acid]
  extent of rising main along which compound persists above the limit of detectability: ~5 km
High levels of reactive organic substrates (reactive COD)
  distance from dosing location within which compound falls below the limits of detectability: within only a kilometre
